Assay results taken from paper PMC8967222.
These are yes or no findings as the source states them, for the method shown. In cells and extracts the contact can be indirect. A yes stands for co-enrichment or nearness to the bait. Other partners may have been found.

By UniProt entry, the sequences of proteins in these tests, tags left out.
UniProt P06537: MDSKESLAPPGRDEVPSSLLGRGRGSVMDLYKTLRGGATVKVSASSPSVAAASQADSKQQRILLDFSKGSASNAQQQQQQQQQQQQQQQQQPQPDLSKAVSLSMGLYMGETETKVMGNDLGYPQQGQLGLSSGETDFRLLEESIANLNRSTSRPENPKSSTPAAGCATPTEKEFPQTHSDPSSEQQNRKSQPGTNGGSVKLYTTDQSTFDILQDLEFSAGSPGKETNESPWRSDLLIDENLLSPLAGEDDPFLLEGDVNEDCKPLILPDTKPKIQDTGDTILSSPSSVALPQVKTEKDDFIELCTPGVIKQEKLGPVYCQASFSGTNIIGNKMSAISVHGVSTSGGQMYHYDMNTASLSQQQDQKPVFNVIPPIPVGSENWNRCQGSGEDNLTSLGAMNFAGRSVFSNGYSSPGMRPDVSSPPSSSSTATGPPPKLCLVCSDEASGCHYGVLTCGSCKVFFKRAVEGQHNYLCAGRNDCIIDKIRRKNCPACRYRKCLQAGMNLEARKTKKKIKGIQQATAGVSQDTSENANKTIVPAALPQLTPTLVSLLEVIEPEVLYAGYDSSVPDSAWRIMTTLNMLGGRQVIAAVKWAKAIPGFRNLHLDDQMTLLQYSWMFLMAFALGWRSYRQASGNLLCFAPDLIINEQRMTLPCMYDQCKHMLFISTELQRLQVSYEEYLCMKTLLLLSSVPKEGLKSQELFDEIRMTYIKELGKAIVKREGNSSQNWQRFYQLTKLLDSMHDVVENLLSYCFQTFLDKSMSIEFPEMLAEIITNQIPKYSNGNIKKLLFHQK
UniProt P23198: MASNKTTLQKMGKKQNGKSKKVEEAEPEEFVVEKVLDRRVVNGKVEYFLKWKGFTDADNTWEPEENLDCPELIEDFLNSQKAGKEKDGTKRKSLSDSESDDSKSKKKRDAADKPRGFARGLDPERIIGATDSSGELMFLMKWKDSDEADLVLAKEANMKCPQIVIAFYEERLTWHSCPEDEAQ
UniProt Q6KCD5: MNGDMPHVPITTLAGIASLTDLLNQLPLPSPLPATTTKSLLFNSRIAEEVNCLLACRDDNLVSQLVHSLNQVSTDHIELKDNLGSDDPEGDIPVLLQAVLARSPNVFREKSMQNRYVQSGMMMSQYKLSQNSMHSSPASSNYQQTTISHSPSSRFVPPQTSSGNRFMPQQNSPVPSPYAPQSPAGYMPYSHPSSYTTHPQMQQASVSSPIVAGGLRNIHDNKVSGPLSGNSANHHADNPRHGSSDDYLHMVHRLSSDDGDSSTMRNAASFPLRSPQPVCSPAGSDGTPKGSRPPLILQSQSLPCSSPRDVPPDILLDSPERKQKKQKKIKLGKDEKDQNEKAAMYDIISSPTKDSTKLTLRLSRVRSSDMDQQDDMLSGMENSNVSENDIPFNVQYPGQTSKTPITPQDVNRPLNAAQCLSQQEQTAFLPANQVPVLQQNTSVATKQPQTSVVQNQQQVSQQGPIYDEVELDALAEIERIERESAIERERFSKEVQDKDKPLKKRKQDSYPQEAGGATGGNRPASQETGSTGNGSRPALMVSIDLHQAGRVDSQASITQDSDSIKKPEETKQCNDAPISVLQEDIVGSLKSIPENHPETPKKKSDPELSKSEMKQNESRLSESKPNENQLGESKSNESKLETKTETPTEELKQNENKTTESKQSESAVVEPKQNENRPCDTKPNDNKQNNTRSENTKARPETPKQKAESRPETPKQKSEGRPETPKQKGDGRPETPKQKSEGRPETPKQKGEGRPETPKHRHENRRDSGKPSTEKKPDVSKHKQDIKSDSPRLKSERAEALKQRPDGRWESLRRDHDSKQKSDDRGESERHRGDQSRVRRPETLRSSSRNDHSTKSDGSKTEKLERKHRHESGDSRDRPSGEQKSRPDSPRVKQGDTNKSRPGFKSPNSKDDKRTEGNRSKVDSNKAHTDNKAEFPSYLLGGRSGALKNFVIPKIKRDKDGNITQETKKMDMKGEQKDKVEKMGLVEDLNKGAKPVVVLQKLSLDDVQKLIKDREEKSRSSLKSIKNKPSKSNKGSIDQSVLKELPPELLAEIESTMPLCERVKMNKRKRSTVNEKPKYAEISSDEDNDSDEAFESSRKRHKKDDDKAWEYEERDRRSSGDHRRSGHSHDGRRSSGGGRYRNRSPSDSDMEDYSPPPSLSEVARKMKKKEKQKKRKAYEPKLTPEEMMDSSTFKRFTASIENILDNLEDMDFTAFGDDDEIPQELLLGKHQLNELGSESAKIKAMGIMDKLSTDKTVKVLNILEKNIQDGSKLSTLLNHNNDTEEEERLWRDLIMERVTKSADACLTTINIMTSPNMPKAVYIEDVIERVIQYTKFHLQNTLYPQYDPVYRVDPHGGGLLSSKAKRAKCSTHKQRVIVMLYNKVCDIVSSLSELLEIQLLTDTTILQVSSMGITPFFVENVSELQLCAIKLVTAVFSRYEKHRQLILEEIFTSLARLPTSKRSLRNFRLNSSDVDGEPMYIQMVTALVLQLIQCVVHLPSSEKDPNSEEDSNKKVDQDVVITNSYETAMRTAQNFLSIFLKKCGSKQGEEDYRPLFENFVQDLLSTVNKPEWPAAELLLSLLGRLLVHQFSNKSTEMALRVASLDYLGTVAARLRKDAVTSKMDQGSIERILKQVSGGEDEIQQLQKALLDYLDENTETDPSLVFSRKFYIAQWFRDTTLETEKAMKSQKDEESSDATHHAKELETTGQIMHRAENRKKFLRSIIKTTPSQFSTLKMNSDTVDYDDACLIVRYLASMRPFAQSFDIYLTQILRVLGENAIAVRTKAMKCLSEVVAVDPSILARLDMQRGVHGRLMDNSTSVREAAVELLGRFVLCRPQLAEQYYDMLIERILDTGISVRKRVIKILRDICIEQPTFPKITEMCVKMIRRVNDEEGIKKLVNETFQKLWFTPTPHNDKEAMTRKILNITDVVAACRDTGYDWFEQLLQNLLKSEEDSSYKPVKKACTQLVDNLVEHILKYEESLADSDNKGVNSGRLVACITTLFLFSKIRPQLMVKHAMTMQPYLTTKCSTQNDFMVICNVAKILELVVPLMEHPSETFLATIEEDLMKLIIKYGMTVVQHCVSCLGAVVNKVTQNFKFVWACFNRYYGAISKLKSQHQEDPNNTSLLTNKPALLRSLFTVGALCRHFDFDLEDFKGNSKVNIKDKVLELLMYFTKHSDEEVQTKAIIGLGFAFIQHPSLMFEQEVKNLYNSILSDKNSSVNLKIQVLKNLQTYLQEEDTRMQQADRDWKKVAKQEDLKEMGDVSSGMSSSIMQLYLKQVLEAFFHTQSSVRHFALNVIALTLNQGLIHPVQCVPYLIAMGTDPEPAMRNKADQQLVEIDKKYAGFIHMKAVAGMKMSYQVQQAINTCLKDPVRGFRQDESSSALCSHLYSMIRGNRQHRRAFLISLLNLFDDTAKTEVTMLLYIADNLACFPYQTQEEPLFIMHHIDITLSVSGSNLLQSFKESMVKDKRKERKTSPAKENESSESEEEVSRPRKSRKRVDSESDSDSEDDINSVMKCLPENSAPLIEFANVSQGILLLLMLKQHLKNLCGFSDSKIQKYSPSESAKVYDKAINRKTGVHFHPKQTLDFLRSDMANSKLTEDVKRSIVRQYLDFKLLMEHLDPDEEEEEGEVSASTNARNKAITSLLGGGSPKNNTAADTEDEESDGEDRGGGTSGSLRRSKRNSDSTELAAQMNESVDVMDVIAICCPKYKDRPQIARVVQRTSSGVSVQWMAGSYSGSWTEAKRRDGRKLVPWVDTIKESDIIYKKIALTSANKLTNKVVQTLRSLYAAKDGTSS
UniProt Q3U9G9: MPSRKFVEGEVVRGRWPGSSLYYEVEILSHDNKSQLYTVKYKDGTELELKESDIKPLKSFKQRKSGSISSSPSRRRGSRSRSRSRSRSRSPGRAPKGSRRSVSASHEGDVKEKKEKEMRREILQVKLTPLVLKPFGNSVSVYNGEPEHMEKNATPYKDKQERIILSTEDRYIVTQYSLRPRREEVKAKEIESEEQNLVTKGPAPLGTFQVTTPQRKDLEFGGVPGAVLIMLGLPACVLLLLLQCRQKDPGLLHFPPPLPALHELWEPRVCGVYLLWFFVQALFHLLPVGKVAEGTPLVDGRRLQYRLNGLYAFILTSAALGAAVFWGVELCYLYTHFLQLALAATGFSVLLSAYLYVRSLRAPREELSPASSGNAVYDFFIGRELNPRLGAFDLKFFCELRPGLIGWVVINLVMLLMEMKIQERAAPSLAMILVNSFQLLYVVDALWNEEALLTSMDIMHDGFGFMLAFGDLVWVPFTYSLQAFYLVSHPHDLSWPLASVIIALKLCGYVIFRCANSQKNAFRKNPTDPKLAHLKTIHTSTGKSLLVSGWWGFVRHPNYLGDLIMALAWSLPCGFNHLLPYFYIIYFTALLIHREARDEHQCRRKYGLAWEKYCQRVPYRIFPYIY
UniProt Q61686: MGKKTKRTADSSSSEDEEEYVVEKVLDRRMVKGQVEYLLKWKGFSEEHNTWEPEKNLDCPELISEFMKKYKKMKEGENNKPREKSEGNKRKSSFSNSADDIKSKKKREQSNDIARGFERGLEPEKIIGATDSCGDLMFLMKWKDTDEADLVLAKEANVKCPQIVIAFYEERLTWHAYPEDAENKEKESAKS
UniProt O88286: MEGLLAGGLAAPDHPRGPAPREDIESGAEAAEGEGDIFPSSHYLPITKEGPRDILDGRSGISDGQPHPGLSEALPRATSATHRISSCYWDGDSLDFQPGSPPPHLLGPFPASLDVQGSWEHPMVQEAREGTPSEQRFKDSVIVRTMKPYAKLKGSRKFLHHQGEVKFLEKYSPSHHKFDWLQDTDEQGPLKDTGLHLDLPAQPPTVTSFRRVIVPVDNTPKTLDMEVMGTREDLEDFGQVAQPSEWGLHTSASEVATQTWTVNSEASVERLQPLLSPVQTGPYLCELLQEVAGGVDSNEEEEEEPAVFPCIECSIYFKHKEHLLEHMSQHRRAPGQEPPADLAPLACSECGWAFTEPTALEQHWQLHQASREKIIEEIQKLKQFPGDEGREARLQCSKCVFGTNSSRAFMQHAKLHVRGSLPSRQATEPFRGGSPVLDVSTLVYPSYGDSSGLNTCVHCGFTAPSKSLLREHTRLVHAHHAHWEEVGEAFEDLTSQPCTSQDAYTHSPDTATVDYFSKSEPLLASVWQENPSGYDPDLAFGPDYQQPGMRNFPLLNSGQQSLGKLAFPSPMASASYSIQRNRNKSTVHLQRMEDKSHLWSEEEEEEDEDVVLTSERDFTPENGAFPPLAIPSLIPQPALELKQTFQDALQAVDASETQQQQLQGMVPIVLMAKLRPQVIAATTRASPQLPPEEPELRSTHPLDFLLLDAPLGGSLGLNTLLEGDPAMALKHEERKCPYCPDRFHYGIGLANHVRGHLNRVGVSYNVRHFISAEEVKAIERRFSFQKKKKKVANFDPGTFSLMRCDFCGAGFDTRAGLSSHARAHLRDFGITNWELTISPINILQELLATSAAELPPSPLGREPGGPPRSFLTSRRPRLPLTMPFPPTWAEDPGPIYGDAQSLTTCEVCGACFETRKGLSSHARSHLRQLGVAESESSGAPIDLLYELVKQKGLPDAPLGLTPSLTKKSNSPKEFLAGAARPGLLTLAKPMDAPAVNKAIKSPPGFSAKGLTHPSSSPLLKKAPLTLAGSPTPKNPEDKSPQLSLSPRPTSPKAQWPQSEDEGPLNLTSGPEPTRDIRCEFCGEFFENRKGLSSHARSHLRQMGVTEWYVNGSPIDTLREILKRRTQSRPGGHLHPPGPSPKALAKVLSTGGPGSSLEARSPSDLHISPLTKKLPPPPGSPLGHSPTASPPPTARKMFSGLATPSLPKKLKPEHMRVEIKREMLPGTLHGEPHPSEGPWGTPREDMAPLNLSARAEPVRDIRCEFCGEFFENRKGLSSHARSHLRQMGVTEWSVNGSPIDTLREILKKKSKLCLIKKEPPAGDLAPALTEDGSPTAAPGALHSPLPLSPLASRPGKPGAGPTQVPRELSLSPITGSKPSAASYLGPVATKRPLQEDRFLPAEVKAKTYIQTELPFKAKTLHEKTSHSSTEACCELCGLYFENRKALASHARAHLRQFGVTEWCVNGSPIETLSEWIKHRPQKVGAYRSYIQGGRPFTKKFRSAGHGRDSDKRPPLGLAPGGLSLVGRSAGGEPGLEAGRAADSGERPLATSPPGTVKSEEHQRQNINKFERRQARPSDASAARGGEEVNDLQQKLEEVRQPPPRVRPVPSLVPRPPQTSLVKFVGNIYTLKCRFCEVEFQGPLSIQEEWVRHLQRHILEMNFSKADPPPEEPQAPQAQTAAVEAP

molecular target: glucocorticoid (GC) receptor (GR) (mouse (endogenous in 3134 mammary carcinoma cells)) (UniProt P06537); test: affinity purification with mass spectrometry; ChIP-SICAP: cells treated with hormone or EtOH for 1 hour, fixed 13 min with 1% paraformaldehyde, chromatin sonicated to 500 bp, GR antibody beads overnight at 4°C, DNA tagged with ddUTP-biotin, streptavidin capture, label-free DIA mass spectrometry

| Molecule | binding |
| --- | --- |
| HP1-gamma (Cbx3) (from UniProt P23198 1-183) | binds |
| nuclear receptor corepressor 1 (from UniProt Q60974 1-2453) | binds |
| cohesin loader NIPBL (from UniProt Q6KCD5 1-2798) | binds |
| lamin B receptor (from UniProt Q3U9G9 1-626) | binds |

Continued, values first:

| binding | Molecule |
| --- | --- |
| binds | HP1-alpha (Cbx5) (from UniProt Q61686 1-191) |
| binds | WIZ (from UniProt O88286 1-1684) |
| binds | SMC1a (structural maintenance of chromosomes 1a) (protein, UniProt Q9CU62 1-1233) MGFLKLIEIENFKSYKGRQIIGPFQRFTAIIGPNGSGKSNLMDAISFVLGEKTSNLRVKTLRDLIHGAPVGKPAANRAFVSMVYSEEGAEDRTFARVIVGGSSEYKINNKVVQLHEYSEELEKLGILIKARNFLVFQGAVESIAMKNPKERTALFEEISRSGELAQEYDKRKKEMVKAEEDTQFNYHRKKNIAAERKEAKQEKEEADRYQRLKDEVVRAQVQLQLFKLYHNEVEIEKLNKELASKNKEIEKDKKRMDKVEDELKEKKKELGKMMREQQQIEKEIKEKDSELNQKRPQYIKAKENTSHKIKKLEAAKKSLQNAQKHYKKRKGDMDELEKEMLSVEKARQEFEERMEEESQSQGRDLTLEENQVKKYHRLKEEASKRAATLAQELEKFNRDQKADQDRLDLEERKKVETEAKIKQKLREIEENQKRIEKLEEYITTSKQSLEEQKKLEGELTEEVEMAKRRIDEINKELNQVMEQLGDARIDRQESSRQQRKAEIMESIKRLYPGSVYGRLIDLCQPTQKKYQIAVTKVLGKNMDAIIVDSEKTGRDCIQYIKEQRGEPETFLPLDYLEVKPTDEKLRELKGAKLVIDVIRYEPPHIKKALQYACGNALVCDNVEDARRIAFGGHQRHKTVALDGTLFQKSGVISGGASDLKAKARRWDEKAVDKLKEKKERLTEELKEQMKAKRKEAELRQVQSQAHGLQMRLKYSQSDLEQTKTRHLALNLQEKSKLESELANFGPRINDIKRIIQSREREMKDLKEKMNQVEDEVFEEFCREIGVRNIREFEEEKVKRQNEIAKKRLEFENQKTRLGIQLDFEKNQLKEDQDKVHMWEQTVKKDENEIEKLKKEEQRHMKIIDETMAQLQDLKNQHLAKKSEVNDKNHEMEEIRKKLGGANKEMTHLQKEVTAIETKLEQKRSDRHNLLQACKMQDIKLPLSKGTMDDISQEEGSSQGEESVSGSQRTSSIYAREALIEIDYGDLCEDLKDAQAEEEIKQEMNTLQQKLNEQQSVLQRIAAPNMKAMEKLESVRDKFQETSDEFEAARKRAKKAKQAFEQIKKERFDRFNACFESVATNIDEIYKALSRNSSAQAFLGPENPEEPYLDGINYNCVAPGKRFRPMDNLSGGEKTVAALALLFAIHSYKPAPFFVLDEIDAALDNTNIGKVANYIKEQSTCNFQAIVISLKEEFYTKAESLIGVYPEQGDCVISKVLTFDLTKYPDANPNPNEQ |
